Experimental data as given in patent publication US8716439 (dated 2014).

Assay: general procedure: solution-phase peptide synthesis; EDC hydrochloride / HOBt monohydrate

| Substance | step yield (coupling step) [%] | crude purity (method not given) (coupling step, HPLC) [%] | final purity (method not given) (purification step, HPLC) [%] | step yield (purification step, crystallization yield) [%] | crude purity (method not given) (whole synthesis, HPLC) [%] | crude yield (whole synthesis, relative to Leu-OBn•TsOH salt) [%] |
| --- | --- | --- | --- | --- | --- | --- |
| Boc-Tyr(Bn)-D-Leu-Leu-Arg(Ts)-Pro-NEtBn | 97 | 66 | – | – | – | – |
| Boc-[dL]LR(Tos)P-NHEt | 85 | 95 | – | – | – | – |
| Boc-D-Leu-Leu-Arg(Ts)-Pro-NEtBn | 99 | 93 | – | – | – | – |
| Boc-S(Bn)Y(Bn)[dL]LR(Tos)P-NHEt | 84 | 83 | – | – | – | – |
| Boc-GGFL-OBn | 73 | 92 | 95 | 71 | 87 | 82 |

Square brackets hold non-standard residues; d marks the D form. * marks the point of attachment. Tos = Cc1ccc(S(=O)(=O)*)cc1; Boc = CC(C)(C)OC(=O)*; OBn = c1ccc(CO*)cc1; Bn = c1ccc(C*)cc1
